{"sequences": {"note": "By UniProt entry, the sequences of proteins in these tests, tags left out.", "UniProt Q9WS38": "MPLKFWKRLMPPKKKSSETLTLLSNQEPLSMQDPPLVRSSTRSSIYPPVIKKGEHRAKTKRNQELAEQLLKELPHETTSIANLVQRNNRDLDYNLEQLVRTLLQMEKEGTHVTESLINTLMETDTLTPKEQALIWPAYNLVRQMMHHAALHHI", "UniProt Q8WUM4": "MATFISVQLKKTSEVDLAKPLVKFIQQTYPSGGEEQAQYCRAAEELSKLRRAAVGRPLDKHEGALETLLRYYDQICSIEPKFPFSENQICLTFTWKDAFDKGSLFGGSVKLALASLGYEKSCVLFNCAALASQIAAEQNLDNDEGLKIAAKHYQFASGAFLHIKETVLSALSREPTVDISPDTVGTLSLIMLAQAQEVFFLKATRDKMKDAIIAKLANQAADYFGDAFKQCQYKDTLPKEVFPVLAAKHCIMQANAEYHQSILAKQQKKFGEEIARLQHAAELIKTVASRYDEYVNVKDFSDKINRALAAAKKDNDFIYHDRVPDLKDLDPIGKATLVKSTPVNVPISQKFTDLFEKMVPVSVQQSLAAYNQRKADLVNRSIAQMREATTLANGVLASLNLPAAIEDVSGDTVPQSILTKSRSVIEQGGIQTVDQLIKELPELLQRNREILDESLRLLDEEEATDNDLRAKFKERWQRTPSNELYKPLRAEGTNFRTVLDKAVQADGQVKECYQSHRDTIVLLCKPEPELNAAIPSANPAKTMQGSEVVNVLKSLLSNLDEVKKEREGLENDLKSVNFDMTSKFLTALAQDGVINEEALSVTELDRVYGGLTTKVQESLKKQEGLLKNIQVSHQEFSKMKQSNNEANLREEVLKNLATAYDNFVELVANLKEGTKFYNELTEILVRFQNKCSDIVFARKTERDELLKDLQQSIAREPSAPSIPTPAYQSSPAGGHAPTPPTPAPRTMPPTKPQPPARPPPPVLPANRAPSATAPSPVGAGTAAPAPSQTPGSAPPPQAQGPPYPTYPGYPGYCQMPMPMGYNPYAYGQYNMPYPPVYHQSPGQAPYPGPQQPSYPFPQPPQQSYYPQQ"}, "source": "paper PMC10046310", "target": "TupV C protein fused to a tandem affinity purification (TAP) tag (Tupaia paramyxovirus) (UniProt Q9WS38)", "test": "affinity purification with mass spectrometry", "note": "No constants are given. Whether binding was seen depends on the method and setting. In cells and extracts the contact can be indirect. These calls come from enrichment with a bait or labelling near it, and not all partners need be listed. A no says only that the protein was not detected with the bait.", "data": [{"substance": "human protein Alix (from UniProt Q8WUM4 1-868)", "values": [{"measurement": "binding", "value": "no binding"}]}]}
